Literature values as cited in patent US20030232999A1, “POLYMETHINE COMPOUND AND NEAR-INFRARED ABSORBING MATERIAL COMPRISING SAME” (priority 2002, published 2003).
Some of these results come from one statement about several compounds together.

Details: prior-art compounds, background statement; cited from earlier work

Row | SMILES | absorption maximum wavelength range
1 | CCN1/C(=C\C=C2/CCCC(/C=C/C3=[N+](CC)c4ccc(OC)cc4C3(C)C)=C2Cl)C(C)(C)c2cc(OC)ccc21.[I-] [compound B] | 785-815 nm
2 | COCCN1/C(=C\C=C2/CCCC(/C=C/C3=[N+](CCOC)c4ccccc4C3(C)C)=C2Cl)C(C)(C)c2ccccc21 [compound A] | 785-815 nm
